# Test results reported in PubChem BioAssay (NCATS).
# Where “and” joins values, the source holds several entries; their conditions need not be identical. Equal values may be shown once. This list was built around the results that the source calls inconclusive (neither active nor inactive); the mix of calls is not that of the screen. For some assays here: Potencies beside an inconclusive call are fits to weak or partial responses and may not hold up. Some compounds were tested as several samples or in several runs, with calls that do not always agree. Calls of active or inactive are those of the source. Calls follow the shape of the dose curve; as a rule, active = well fitted curve in the direction sought with a large enough effect; inconclusive = small, poorly fitted or top-dose-only effect, or another doubt; inactive = no such curve, though single readings can be large; an effect the other way counts as inactive or inconclusive.
# Columns and labels:
# [1] = Quantitative highthroughput screen to assess conditional lethalithy of NOMO1 cells grown in Human Plasma-Like Medium with dialyzed fetal bovine serum (HPLM+ds) (AID 1963878); also: nearly all actives have a fitted effect of over 35% in size;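 as to viability: 100% = DMSO wells and 0% = empty wells on each plate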
# Method in brief: (§1)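 Each medium arm—HPLM with 10% dialyzed FBS, or RPMI1640 with 5 mM glucose and 10% untreated or dialyzed FBS—was screened against an 11-point, 3-fold compound titration for 48 h at 37 °C, with CellTiter-Glo luminescence as endpoint.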
# [2] = Quantitative highthroughput screen to assess conditional lethalithy of P12 Ichikawa cells grown in Human Plasma-Like Medium with dialyzed fetal bovine serum (HPLM+ds) (AID 1963879); details: Potency: viability; also: nearly all actives have a fitted effect of over 35% in size
# Method in brief: as §1
# [3] = Quantitative highthroughput screen to assess conditional lethalithy of NOMO1 cells grown in RPMI1640 with dialyzed fetal bovine serum (RPMI+ds) (AID 1963877); also: nearly all actives have a fitted effect of over 30% in size;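 as to viability: 100% = DMSO control wells and 0% = empty wells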
# Method in brief: as §1
# [4] = Quantitative highthroughput screen to assess conditional lethalithy of P12 Ichikawa cells grown in RPMI1640 with dialyzed fetal bovine serum (RPMI+ds) (AID 1963880); details: Potency: P12-Ichikawa viability; also: nearly all actives have a fitted effect of over 35% in size;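 as to viability: 100% = DMSO wells and 0% = empty wells on each plate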
# Method in brief: as §1
# [5] = Quantitative highthroughput screen to assess conditional lethalithy of P12 Ichikawa cells grown in RPMI1640 with untreated serum (RPMI+s) (AID 1963881); details: Potency: viability; also: nearly all actives have a fitted effect of over 35% in size;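 as to viability: 100% = DMSO wells and 0% = empty wells without cells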
# Method in brief: as §1
# [6] = Quantitative highthroughput screen to assess conditional lethalithy of SEM cells grown in RPMI1640 with dialyzed fetal bovine serum (RPMI+ds) (AID 1963884); also: nearly all actives have a fitted effect of over 35% in size
# Method in brief: as §1
# [7] = Quantitative highthroughput screen to assess conditional lethalithy of SEM cells grown in Human Plasma-Like Medium with dialyzed fetal bovine serum (HPLM+ds) (AID 1963882); also: nearly all actives have a fitted effect of over 35% in size
# Method in brief: as §1
# [8] = Cellular viability qHTS for adrenocortical cancer (ACC) cell line NCI-H295R (AID 1963990); details: CellTiter-Glo ATP luminescence, 48 h; activity change, negative = viability loss: at 46.1 µM (top of the series); also: nearly all actives have a fitted effect of over 60% in size;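 as to activity change, negative = viability loss: 0% = DMSO only wells and -100% = full killing with cytotoxic reference compound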
# Method in brief: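 Adrenocortical carcinoma cells, suspended at 300 000 cells/mL in serum-free DMEM plus ITS, rested overnight before pin transfer of compound. After two days' incubation, ATP-dependent luminescence was recorded and curve-fitted.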
# [9] = Quantitative highthroughput screen to assess conditional lethalithy of SEM cells grown in RPMI1640 with unreated serum (RPMI+s) (AID 1963883); also: nearly all actives have a fitted effect of over 35% in size;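 as to viability: 100% = DMSO wells and 0% = empty wells without cells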
# Method in brief: as §1
# [10] = Quantitative highthroughput screen to assess conditional lethalithy of NOMO1 cells grown in RPMI1640 with untreated serum (RPMI+s) (AID 1963876); also: nearly all actives have a fitted effect of over 35% in size;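 as to viability: 100% = DMSO wells and 0% = empty wells without cells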
# Method in brief: as §1
# [11] = Cellular viability qHTS for adrenocortical cancer (ACC) cell line SW-13 (AID 1963989); details: SW-13 ACC cells viability, CellTiter-Glo, 48 h; activity (max response): hits give low values; also: nearly all actives have a fitted effect of over 65% in size;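 as to activity (max response): cells grown in serum-free medium with ITS supplement; % is scaled to controls: 0 for no effect and ±100 for the full control effect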
# Method in brief: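 IC50 and maximal-response values come from four-parameter logistic fits of titration data. SW-13 cells in serum-free medium received compounds (up to 46 uM final) for 48 h before CellTiter-Glo luminescence.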
# Potency is read from the fitted curve at half-maximal effect.
smiles,measurement,setting,value
COc1cc2cc(c1Cl)N(C)C(=O)C[C@H](OC(=O)C(C)C)[C@]1(C)O[C@H]1[C@H](C)[C@@H]1C[C@@](O)(NC(=O)O1)[C@H](OC)C=CC=C(C)C2,Potency,[1],"inconclusive: 26.4 µM [cytotoxic, partial curve, poor fit]"
same,Potency,[2],inactive
CCOC(=O)c1cncn1[C@H](C)c1ccccc1,Potency,[1],inactive
CC=C(C)C(=O)N[C@@H](c1ccccc1)[C@@H](O)C(=O)O[C@H]1C[C@@]2(O)[C@@H](OC(=O)c3ccccc3)[C@@H]3[C@]4(OC(C)=O)CO[C@@H]4C[C@H](O)[C@@]3(C)C(=O)[C@H](OC(C)=O)C(=C1C)C2(C)C,Potency,[3],"inconclusive: 0.0012 µM [cytotoxic, full curve]"
same,Potency,[4],"inconclusive: 0.0013 µM [cytotoxic, full curve]"
same,Potency,[5],"inconclusive: 0.0017 µM [cytotoxic, full curve]"
same,Potency,[6],"inconclusive: 0.0047 µM [cytotoxic, full curve, poor fit]"
CCCC[N+]1(C)[C@H]2CC(OC(=O)[C@H](CO)c3ccccc3)C[C@H]1[C@H]1O[C@H]12 (some centres undefined),Potency,[3],"inconclusive: 26.4 µM [cytotoxic, single point]"
same,Potency,[1],active: 11.8 µM
same,Potency,[4],inactive
same,Potency,[7],inactive
same,Potency,[8],inactive
CCCN1CCO[C@@H]2c3cc(O)ccc3OC[C@@H]21,Potency,[3],"inconclusive: 37.2 µM [cytotoxic, single point]"
same,Potency,[1],"inconclusive: 37.2 µM [cytotoxic, single point]"
same,Potency,[5],"inconclusive: 29.6 µM [cytotoxic, single point]"
same,Potency,[9],"inconclusive: 4.69 µM [cytotoxic, partial curve, poor fit]"
CC(=O)O[C@@]12CO[C@H]1C[C@H](O)[C@@]1(C)C(=O)[C@H](O)C3=C(C)[C@@H](O)C[C@@](O)([C@@H](OC(=O)c4ccccc4)[C@@H]21)C3(C)C,Potency,[1],"inconclusive: 9.35 µM [cytotoxic, full curve]"
same,Potency,[2],active: 10.5 µM
C=C(C)[C@H]1Cc2c(ccc3c2O[C@@H]2COc4cc(OC)c(OC)cc4[C@@H]2C3=O)O1,Potency,[10],active: 5.26 µM
same,Potency,[1],"inconclusive: 3.32 µM [cytotoxic, full curve]"
same,Potency,[9],active: 4.18 µM
same,Potency,[11],active: 0.0116 µM
same,Potency,[8],active: 0.103 µM
CC(C)c1cccc(C(C)C)c1O,Potency,[10],inactive
same,Potency,[1],inactive
same,activity (max response),[11],inactive: 18.8% and inactive: -6.92%
same,Potency,[8],active: 23.1 µM
C[C@]12CCC(=O)C(O)=C1CC[C@@H]1[C@H]3CCC(=O)[C@@]3(C)CC[C@@H]12,Potency,[1],inactive
C=C[C@@H]1CN2CCC1C[C@H]2[C@H](O)c1ccnc2ccccc12 (some centres undefined),Potency,[10],inactive
same,Potency,[1],"inconclusive: 23.5 µM [cytotoxic, single point]"
same,Potency,[2],inactive
same,Potency,[4],"inconclusive: 20.9 µM [cytotoxic, partial curve, poor fit]"
same,Potency,[9],"inconclusive: 20.9 µM [cytotoxic, partial curve]"
same,Potency,[6],"inconclusive: 26.4 µM [cytotoxic, single point]"
O=C1CCC[C@@H]2[C@H]3CCCN4CCC[C@@H](CN12)[C@@H]34,Potency,[10],"inconclusive: 0.743 µM [cytotoxic, full curve, poor fit]"
same,Potency,[1],"inconclusive: 0.469 µM [cytotoxic, full curve, poor fit]"
same,Potency,[4],inactive
same,Potency,[5],inactive
same,Potency,[7],"inconclusive: 0.0012 µM [rising, full curve, poor fit]"
same,Potency,[9],inactive
NC1CC1c1ccccc1 (centres undefined),Potency,[3],inactive
same,Potency,[1],"inconclusive: 37.2 µM [cytotoxic, single point]"
COc1ccc2c(c1)CN(C)CC2c1ccc(Cl)c(Cl)c1 (centres undefined),Potency,[7],"inconclusive: 23.5 µM [cytotoxic, single point]"
same,Potency,[6],"inconclusive: 0.0047 µM [rising, full curve, poor fit]"
O=P1(N(CCCl)CCCl)NCCCO1 (centres undefined),Potency,[4],"inconclusive: 29.6 µM [cytotoxic, single point]"
same,Potency,[5],active: 14.8 µM
same,Potency,[6],active: 9.35 µM
CC=C(C)C(=O)O[C@H]1C(C)=C2[C@@H]3OC(=O)[C@@](C)(O)[C@@]3(O)[C@@H](OC(=O)CCC)C[C@](C)(OC(C)=O)[C@@H]2[C@@H]1OC(=O)CCCCCCC,Potency,[1],active: 0.0662 µM
same,Potency,[4],active: 0.132 µM
same,Potency,[5],"inconclusive: 0.118 µM [cytotoxic, full curve]"
C[C@@H]1CC[C@H]2[C@@H](C)C(=O)O[C@@H]3O[C@@]4(C)CC[C@H]1[C@]32OO4,Potency,[5],inactive
same,Potency,[7],inactive
CC[C@@H]1[C@@H](C)O[C@@](O)([C@@H](C)[C@H](O)[C@H](C)[C@H]2OC(=O)C=CC=C[C@@H](C)[C@@H]([C@@H](C)[C@@H](O)[C@H](C)[C@@]3(O)C[C@H](O[C@H]4C[C@H](O)[C@H](O)[C@H](C)O4)[C@H](CC)[C@@H](C)O3)OC(=O)C=CC=C[C@@H]2C)C[C@H]1O[C@H]1C[C@H](O)[C@H](O)[C@H](C)O1,Potency,[1],active: 2.96 µM
same,Potency,[9],active: 2.64 µM

# Exported with bars between the fields: part of the list above.
smiles | measurement | setting | value
CC(C)c1cccc(C(C)C)c1O | Potency | [8] | active: 23.1 µM
C[C@]12CCC(=O)C(O)=C1CC[C@@H]1[C@H]3CCC(=O)[C@@]3(C)CC[C@@H]12 | Potency | [1] | inactive
C=C[C@@H]1CN2CCC1C[C@H]2[C@H](O)c1ccnc2ccccc12 (some centres undefined) | Potency | [10] | inactive
same | Potency | [1] | inconclusive: 23.5 µM [cytotoxic, single point]
same | Potency | [2] | inactive
same | Potency | [4] | inconclusive: 20.9 µM [cytotoxic, partial curve, poor fit]
same | Potency | [9] | inconclusive: 20.9 µM [cytotoxic, partial curve]
same | Potency | [6] | inconclusive: 26.4 µM [cytotoxic, single point]
O=C1CCC[C@@H]2[C@H]3CCCN4CCC[C@@H](CN12)[C@@H]34 | Potency | [10] | inconclusive: 0.743 µM [cytotoxic, full curve, poor fit]
same | Potency | [1] | inconclusive: 0.469 µM [cytotoxic, full curve, poor fit]
